Some of these results come from one statement about several compounds together. At least one compound was matched to its structure with a doubt left.
Assay: Molar extinction coefficient in methanol and PBS
Type: physicochemical
Settings: in methanol
Method: For all indodicarbocyanine dyes (I) (A1) - (A30) and (B1) - (B7) of the invention, there are determined the molar extinction coefficients in methanol and in aqueous phosphate buffered saline (PBS) (10 mM potassium phosphate buffer, sodium chloride concentration is 0.9%, pH 7.4). In methanol, indodicarbocyanine (A1, A8, A10-A12, A17, A23) has the upper-range of molar extinction coefficient (ε >[…]). In aqueous phosphate buffered saline (PBS), dyes (A10, A23, A30) have the maximal ε-value (Fig. 2).

SMILES | molar extinction coefficient (ε)
CCN1C(=CC=CC=CC2=[N+](CCCCS(=O)(=O)[O-])c3ccccc3C2(C)CCCCC(=O)O)C(C)(C)c2cc(S(=O)(=O)[O-])ccc21.[Na+] (centres unmarked) [A11, 3-(4-Carboxybutyl)-N-(4-sulfobutyl)-5'-sulfo-3,3',3'-trimethyl-N'-ethylindodicarbocyanine, sodium salt] | > 2.2*10^-5
Cc1ccc2c(c1)C(C)(C)C(=CC=CC=CC1=[N+](CCCCS(=O)(=O)[O-])c3ccccc3C1(C)CCCCC(=O)O)N2CCCCS(=O)(=O)[O-].[Na+] (centres unmarked) [A12, N,N'-Di(4-sulfobutyl)-3-(4-carboxybutyl)-3,3',3',5'-tetramethylindodicarbocyanine, sodium salt] | > 2.2*10^-5
